The values that follow come from the supplement of paper PMC6411743.

Protein sequences, listed by entry. Tags and fused reporters are not part of them. Lines headed by an entry give the natural chain unless they say otherwise; changes in a name come on top.
UniProt Q08257: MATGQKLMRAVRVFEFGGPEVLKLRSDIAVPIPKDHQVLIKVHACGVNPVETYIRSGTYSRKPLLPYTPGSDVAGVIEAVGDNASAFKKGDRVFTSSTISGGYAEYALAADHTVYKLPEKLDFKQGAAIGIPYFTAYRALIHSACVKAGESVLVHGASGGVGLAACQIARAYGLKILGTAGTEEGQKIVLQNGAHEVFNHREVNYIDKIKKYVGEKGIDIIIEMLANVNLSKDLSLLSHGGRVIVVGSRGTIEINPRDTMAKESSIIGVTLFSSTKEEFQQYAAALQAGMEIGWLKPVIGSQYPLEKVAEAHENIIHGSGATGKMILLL
UniProt Q13576: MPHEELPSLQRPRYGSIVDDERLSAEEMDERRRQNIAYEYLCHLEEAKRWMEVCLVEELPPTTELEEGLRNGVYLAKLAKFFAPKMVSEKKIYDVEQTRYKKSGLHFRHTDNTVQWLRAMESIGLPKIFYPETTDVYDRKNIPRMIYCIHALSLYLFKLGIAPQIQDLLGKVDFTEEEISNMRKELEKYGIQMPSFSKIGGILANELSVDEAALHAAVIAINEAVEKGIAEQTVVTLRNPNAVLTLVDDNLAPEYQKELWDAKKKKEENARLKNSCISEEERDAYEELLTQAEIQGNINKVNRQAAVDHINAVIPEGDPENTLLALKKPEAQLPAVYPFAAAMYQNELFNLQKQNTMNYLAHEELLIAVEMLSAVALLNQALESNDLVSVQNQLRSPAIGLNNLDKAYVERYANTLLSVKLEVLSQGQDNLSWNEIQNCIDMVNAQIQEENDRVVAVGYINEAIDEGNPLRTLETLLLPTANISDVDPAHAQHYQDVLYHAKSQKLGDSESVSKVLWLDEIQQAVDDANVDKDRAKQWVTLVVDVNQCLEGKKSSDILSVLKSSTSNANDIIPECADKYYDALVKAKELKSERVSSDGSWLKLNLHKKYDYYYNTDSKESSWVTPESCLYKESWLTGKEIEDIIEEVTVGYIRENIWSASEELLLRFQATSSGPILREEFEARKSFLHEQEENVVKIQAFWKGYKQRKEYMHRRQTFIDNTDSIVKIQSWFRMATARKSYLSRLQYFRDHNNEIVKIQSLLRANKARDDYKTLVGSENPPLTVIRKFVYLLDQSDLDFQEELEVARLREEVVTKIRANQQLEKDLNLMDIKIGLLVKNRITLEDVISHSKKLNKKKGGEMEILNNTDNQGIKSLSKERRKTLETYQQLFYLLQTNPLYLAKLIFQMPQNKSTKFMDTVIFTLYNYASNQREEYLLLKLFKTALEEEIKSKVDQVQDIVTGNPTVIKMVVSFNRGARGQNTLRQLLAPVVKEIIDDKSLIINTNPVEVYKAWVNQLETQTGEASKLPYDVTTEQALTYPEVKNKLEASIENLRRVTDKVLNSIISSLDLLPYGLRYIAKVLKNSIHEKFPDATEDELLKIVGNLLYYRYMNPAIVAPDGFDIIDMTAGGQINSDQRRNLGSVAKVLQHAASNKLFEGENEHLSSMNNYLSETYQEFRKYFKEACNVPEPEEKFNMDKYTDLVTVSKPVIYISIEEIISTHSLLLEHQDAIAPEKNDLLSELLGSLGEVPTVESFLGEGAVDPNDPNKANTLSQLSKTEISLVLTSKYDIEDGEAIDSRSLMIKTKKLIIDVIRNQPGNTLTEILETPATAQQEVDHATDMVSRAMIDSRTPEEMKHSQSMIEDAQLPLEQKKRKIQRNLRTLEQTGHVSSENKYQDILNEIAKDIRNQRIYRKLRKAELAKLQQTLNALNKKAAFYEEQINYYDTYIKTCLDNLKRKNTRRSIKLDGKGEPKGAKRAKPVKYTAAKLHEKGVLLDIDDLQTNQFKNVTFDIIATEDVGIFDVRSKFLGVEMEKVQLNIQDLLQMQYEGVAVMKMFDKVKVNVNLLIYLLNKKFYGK
UniProt Q13287: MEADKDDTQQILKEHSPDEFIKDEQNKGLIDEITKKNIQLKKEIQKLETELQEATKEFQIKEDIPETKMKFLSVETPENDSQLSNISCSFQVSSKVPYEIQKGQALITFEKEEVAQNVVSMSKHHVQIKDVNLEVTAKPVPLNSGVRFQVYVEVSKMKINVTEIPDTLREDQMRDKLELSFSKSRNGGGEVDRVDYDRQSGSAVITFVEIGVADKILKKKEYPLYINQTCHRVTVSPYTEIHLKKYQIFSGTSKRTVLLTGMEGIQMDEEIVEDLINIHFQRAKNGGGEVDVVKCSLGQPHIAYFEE
UniProt Q07820, whole entry: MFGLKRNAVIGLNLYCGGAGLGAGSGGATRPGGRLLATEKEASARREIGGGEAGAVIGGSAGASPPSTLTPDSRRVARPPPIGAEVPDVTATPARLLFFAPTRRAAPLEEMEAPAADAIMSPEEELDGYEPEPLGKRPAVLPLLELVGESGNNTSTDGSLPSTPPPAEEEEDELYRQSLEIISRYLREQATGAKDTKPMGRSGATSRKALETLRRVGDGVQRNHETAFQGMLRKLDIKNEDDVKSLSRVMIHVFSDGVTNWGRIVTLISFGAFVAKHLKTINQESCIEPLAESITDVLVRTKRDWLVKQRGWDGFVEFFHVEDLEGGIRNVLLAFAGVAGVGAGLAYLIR
UniProt Q12959, whole entry, looked up: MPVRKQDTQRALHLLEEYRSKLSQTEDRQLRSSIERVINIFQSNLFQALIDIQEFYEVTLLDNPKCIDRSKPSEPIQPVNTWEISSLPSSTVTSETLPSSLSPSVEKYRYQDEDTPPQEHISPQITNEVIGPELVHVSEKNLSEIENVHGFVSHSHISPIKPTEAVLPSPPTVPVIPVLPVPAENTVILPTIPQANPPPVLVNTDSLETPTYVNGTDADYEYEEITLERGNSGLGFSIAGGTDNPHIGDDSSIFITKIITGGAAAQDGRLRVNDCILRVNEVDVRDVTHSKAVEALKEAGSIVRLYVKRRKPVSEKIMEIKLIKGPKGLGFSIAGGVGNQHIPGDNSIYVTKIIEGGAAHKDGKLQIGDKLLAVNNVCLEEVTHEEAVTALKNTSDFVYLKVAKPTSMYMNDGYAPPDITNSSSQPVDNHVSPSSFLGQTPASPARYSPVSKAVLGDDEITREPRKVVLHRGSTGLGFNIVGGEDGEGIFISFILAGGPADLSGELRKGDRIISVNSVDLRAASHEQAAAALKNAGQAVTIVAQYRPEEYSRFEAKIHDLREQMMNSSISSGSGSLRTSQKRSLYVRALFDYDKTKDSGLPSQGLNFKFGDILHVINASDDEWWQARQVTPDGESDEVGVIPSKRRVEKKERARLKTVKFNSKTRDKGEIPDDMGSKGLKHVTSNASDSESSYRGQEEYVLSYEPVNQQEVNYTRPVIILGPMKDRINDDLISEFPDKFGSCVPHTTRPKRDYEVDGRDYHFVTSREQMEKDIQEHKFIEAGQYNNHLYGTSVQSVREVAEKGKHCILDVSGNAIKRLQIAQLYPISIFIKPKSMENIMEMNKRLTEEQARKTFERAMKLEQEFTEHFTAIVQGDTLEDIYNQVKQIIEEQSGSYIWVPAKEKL
UniProt Q01804: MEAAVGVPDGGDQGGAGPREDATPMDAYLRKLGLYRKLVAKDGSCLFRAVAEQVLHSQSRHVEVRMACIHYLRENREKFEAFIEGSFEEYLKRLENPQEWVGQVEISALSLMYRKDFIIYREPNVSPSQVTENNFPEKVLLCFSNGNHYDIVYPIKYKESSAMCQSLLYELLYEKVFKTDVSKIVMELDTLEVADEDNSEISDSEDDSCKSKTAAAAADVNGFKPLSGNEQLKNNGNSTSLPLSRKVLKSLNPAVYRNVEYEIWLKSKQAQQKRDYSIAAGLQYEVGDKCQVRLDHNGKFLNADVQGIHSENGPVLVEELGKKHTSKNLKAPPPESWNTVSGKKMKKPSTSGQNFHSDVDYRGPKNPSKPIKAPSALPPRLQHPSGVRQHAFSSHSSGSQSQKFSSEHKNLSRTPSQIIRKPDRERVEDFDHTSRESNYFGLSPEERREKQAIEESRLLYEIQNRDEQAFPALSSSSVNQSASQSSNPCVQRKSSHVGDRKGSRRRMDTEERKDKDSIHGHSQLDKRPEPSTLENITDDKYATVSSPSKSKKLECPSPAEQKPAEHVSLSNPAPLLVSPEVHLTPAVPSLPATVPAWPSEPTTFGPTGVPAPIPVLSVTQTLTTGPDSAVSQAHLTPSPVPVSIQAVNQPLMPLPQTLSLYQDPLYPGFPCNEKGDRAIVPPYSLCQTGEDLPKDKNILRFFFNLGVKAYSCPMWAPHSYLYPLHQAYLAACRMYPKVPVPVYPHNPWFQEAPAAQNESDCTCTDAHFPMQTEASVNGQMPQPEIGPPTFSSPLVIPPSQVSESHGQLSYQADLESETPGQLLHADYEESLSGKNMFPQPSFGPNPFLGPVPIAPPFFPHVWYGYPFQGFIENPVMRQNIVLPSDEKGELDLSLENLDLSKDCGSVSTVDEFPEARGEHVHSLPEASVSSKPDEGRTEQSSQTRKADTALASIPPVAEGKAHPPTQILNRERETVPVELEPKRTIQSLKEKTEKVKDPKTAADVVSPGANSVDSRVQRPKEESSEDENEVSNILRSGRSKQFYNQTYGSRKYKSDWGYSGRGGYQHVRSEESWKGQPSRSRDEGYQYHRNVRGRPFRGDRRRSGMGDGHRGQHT
UniProt Q13433: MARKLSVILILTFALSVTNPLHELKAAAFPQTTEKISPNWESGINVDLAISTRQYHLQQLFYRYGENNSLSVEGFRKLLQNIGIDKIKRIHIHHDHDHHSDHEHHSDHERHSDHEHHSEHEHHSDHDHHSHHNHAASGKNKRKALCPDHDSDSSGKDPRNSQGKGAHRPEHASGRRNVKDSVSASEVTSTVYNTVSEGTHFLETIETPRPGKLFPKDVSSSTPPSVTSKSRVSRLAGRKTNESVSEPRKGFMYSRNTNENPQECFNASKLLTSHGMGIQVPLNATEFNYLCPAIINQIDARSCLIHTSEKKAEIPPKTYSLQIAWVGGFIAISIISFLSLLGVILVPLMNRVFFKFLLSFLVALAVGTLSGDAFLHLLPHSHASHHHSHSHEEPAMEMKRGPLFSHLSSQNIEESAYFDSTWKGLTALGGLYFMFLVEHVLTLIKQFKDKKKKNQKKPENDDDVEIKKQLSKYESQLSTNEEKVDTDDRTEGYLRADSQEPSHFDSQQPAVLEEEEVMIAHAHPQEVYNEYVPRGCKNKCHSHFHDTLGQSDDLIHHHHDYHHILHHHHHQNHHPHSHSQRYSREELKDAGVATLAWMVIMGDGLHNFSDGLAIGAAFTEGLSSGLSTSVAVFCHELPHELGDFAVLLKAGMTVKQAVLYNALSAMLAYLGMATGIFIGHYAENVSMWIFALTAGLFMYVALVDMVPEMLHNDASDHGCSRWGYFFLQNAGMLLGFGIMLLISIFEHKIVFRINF
UniProt Q13542: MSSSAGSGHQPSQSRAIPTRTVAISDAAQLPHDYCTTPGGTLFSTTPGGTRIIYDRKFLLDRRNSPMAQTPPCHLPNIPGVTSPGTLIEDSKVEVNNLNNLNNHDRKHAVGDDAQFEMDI
UniProt Q05048: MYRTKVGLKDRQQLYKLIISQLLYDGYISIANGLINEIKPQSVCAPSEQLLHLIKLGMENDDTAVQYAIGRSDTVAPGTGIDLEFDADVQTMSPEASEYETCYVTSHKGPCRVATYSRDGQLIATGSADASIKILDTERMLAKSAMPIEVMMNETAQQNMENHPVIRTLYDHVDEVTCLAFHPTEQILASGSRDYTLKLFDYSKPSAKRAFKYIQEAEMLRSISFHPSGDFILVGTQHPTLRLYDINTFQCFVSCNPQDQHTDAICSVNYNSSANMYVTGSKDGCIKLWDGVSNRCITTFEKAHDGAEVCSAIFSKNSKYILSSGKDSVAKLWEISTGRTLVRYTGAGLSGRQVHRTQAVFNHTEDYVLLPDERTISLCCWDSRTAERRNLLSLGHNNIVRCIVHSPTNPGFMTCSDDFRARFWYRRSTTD
UniProt Q13596, whole entry: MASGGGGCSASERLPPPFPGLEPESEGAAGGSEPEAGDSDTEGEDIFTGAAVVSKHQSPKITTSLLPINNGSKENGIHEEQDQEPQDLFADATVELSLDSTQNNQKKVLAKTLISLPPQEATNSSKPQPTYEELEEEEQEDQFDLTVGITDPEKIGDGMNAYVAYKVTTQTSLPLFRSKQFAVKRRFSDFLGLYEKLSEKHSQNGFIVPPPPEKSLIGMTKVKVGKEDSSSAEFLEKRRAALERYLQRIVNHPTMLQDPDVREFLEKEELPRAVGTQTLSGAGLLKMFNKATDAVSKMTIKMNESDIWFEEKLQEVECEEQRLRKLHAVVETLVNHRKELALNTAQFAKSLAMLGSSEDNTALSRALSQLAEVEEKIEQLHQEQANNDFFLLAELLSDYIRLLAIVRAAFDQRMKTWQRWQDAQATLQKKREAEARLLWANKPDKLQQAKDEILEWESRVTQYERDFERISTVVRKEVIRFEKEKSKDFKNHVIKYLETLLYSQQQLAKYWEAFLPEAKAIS

Compound in this test: Nc1ncnc2c1ncn2[C@@H]1O[C@H](COP(=O)(O)OP(=O)(O)OP(=O)(O)O)[C@@H](O)[C@H]1O [adenosine triphosphate]
The experiment in a line: NP40-soluble protein abundance relative to vehicle (solubility fold change) (ratio); higher = more soluble protein in presence of ATP. In short, it runs like this:
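Across three independent experiments, values are fold changes against the detergent-processed vehicle for each replicate, based on vsn-normalised intensities. The samples were Jurkat crude lysate treated with eight concentrations (0.1 to 10 mM) for 10 min at room temperature and then 3 min at 37 °C. Lysate was solubilised with 0.8% NP40 and benzonase, ultracentrifuged, and the supernatant analysed by TMT-labelled LC-MS/MS.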

± gives the standard deviation of the averaged measurements. The list shows a part of the results, in another mix than the full data. Most values lie at the level of the controls, where differences are scatter.

In the case of SF3A3 (UniProt Q12874), the NP40-soluble protein abundance by setting is: (concentration: 0.1mM) 1.05 ± 0.011; (concentration: 0.5mM) 1.13 ± 0.059.

As for SLC7A5 (UniProt Q01650), the NP40-soluble protein abundance (concentration: 0.1mM) is 1 ± 0.044 and the NP40-soluble protein abundance (concentration: 0.5mM) amounted to 0.995 ± 0.095.

Consider CRYZ (UniProt Q08257), for which the NP40-soluble protein abundance was determined as 1.02 ± 0.073 (concentration: 0.1mM) and 1.03 ± 0.047 (concentration: 0.5mM).

RING1 (UniProt Q06587): the NP40-soluble protein abundance (concentration: 0.1mM) came out at 0.972 ± 0.04 and the NP40-soluble protein abundance (concentration: 0.5mM) came to 0.998 ± 0.012.

Take IQGAP2 (UniProt Q13576): the NP40-soluble protein abundance reads like this: (concentration: 0.1mM) 1.04 ± 0.052; (concentration: 0.5mM) 1.08 ± 0.049.

As to UniProt Q13303 and related entries, the NP40-soluble protein abundance was determined as 0.977 ± 0.064 (concentration: 0.1mM) and 0.979 ± 0.017 (concentration: 0.5mM).

Regarding GABPA (UniProt Q06546), the NP40-soluble protein abundance reads like this: (concentration: 0.1mM) 1 ± 0.056; (concentration: 0.5mM) 1.01 ± 0.022.

Take UniProt Q02750: the NP40-soluble protein abundance came out at 0.989 ± 0.02 (concentration: 0.1mM) and 1.02 ± 0.036 (concentration: 0.5mM).

As for MBTD1 (UniProt Q05BQ5), the NP40-soluble protein abundance reads like this: (concentration: 0.1mM) 1.08 ± 0.18; (concentration: 0.5mM) 1.07 ± 0.1.

As for SCARB2 (UniProt Q14108), the NP40-soluble protein abundance was found to be 0.909 ± 0.0099 (concentration: 0.1mM) and 0.914 ± 0.091 (concentration: 0.5mM).

Take NMI (UniProt Q13287): the NP40-soluble protein abundance stood at 1 ± 0.056 (concentration: 0.1mM) and 1.03 ± 0.054 (concentration: 0.5mM).

MCL1 (UniProt Q07820): the NP40-soluble protein abundance was 1.05 ± 0.14 (concentration: 0.1mM) and 0.958 ± 0.044 (concentration: 0.5mM).

Take KHDRBS1 (UniProt Q07666): the NP40-soluble protein abundance turned out to be 0.976 ± 0.025 (concentration: 0.1mM) and 1.02 ± 0.053 (concentration: 0.5mM).

Take UniProt Q13416: the NP40-soluble protein abundance runs as follows: (concentration: 0.1mM) 0.979 ± 0.045; (concentration: 0.5mM) 0.978 ± 0.081.

As for UniProt Q12959-3|Q12959-2|Q12959-4, the NP40-soluble protein abundance runs as follows: (concentration: 0.1mM) 1.03 ± 0.038; (concentration: 0.5mM) 1.04 ± 0.035.

For SP4 (UniProt Q02446), the NP40-soluble protein abundance (concentration: 0.1mM) came out at 0.943 ± 0.025 and the NP40-soluble protein abundance (concentration: 0.5mM) is 0.998 ± 0.06.

Take RPL6 (UniProt Q02878): the NP40-soluble protein abundance stood at 0.968 ± 0.069 (concentration: 0.1mM) and 0.99 ± 0.075 (concentration: 0.5mM).

As to UniProt Q12912 and related entries, the NP40-soluble protein abundance by setting is: (concentration: 0.1mM) 1.041 ± 0.0096; (concentration: 0.5mM) 1.02 ± 0.097.

Take OTUD4 (UniProt Q01804): the NP40-soluble protein abundance is, setting by setting: (concentration: 0.1mM) 1.04 ± 0.054; (concentration: 0.5mM) 1.01 ± 0.035.

Regarding UniProt Q14141, the NP40-soluble protein abundance reads like this: (concentration: 0.1mM) 0.987 ± 0.042; (concentration: 0.5mM) 1.01 ± 0.087.

SLC39A6 (UniProt Q13433): the NP40-soluble protein abundance is, setting by setting: (concentration: 0.1mM) 0.93 ± 0.029; (concentration: 0.5mM) 0.867 ± 0.074.

As to EIF4EBP2 (UniProt Q13542), the NP40-soluble protein abundance was 0.931 ± 0.073 (concentration: 0.1mM) and 0.97 ± 0.14 (concentration: 0.5mM).

Regarding CSTF1 (UniProt Q05048), the NP40-soluble protein abundance runs as follows: (concentration: 0.1mM) 1.02 ± 0.028; (concentration: 0.5mM) 1 ± 0.024.

Regarding SNX1 (UniProt Q13596), the NP40-soluble protein abundance reads like this: (concentration: 0.1mM) 1.02 ± 0.04; (concentration: 0.5mM) 1.03 ± 0.039.
